# Measurements: PubChem BioAssay AID588499 (NMMLSC, 2011)
# The campaign covered roughly 360,000 compounds. About 610 (0.17%) were called active. The shares of active, inactive and inconclusive entries below differ from those in the screen. Rule as the data show it: active = inhibition above about 30%; inconclusive = no clear call, values can overlap the other calls; inactive = below that.
# System: Botulinum neurotoxin type A light chain protease (Clostridium botulinum A str. ATCC 3502)
# Experiment: blockers of BoNT/A LC substrate cleavage – biochemical, flow cytometry, MLPCN library, primary screen (AID 588499); also: plate controls were buffer without enzyme for full effect and enzyme alone for no effect
# Details: multiplex microsphere protease substrate cleavage, at 10 µM, hits give high values
row,Compound,inhibition
1,COc1cccc(C(C)(O)c2nc(-c3cccc(C(C)C)c3)cs2)c1 (stereo unspecified),inactive: 0.2%
2,O=C(c1cccc(Cl)c1Cl)N1CCN(c2ccccn2)CC1,inconclusive: -0.7%
3,Cc1ccc(S(=O)(=O)NCCCCCC(=O)NC(C)(C)CO)cc1,inactive: 0.2%
4,O=C(CSc1ccc([N+](=O)[O-])cn1)Nc1ccc2c(c1)OCO2,inactive: 0.3%
5,Cn1c(=O)c2c(nc(Sc3ccccc3N)n2C)n(C)c1=O,inconclusive: -44.2%
6,O=C(CCN1C(=O)C2CCCCC2C1=O)Nc1ccc(OC(F)F)cc1 (stereo unspecified),inconclusive: -5.8%
7,c1ccc(Cc2cc[n+](Cc3ccccn3)cc2)cc1,inconclusive: -50%
8,Cc1cc2ccccc2cc1CN1CCCCC1,inconclusive: -1.7%
9,CC1CCCC(C)N1C(=O)CSc1ncccn1 (stereo unspecified),inactive: -1%
10,Cc1cccc(Cn2c(Cc3ccccc3)nc3ccccc32)c1,inactive: 0.5%
11,CCCn1c(SCC(=O)NCC(=O)Nc2ccc(F)c(F)c2F)nc2ccccc2c1=O,inactive: 0.4%
12,Cc1ccc(Cn2nnc3c(=O)n(CC(=O)N4CCCCC4)cnc32)cc1,inconclusive: 28.6%
13,CCOC(=O)c1sc2cccc(F)c2c1N,inconclusive: -0.2%
14,CC1=CC(c2ccccc2)=Nc2ccc(C)cc2N1,inactive: 0.5%
15,CN(N=Cc1ccc([N+](=O)[O-])cc1)c1ccccn1,inactive: -0.3%
16,CC(=O)c1ccc(NC(=O)C2CCCNC2=O)cc1 (stereo unspecified),inconclusive: 1.1%
17,COCCNC(=O)CCC1CCN(Cc2ccc(-c3ccccc3)cc2)CC1,inconclusive: 1.4%
18,COc1cc(CNc2ncn[nH]2)cc(Br)c1OC,inconclusive: -2.6%
19,CC(C)(C)C1CCC(=NNc2ncc(C(F)(F)F)cc2Cl)CC1 (stereo unspecified),inconclusive: 0.6%
20,O=C(NNC(=O)c1ccccc1O)c1ccc(S(=O)(=O)Nc2ccccc2F)cc1,inconclusive: -0.7%
21,Cc1c(OCC(=O)N[C@H](C(=O)O)c2ccccc2)ccc2c3c(c(=O)oc12)CCCC3,inactive: -0.1%

# Filtered by structure, the compounds so far containing fluorine (five)
row,Compound,inhibition
6,O=C(CCN1C(=O)C2CCCCC2C1=O)Nc1ccc(OC(F)F)cc1 (stereo unspecified),inconclusive: -5.8%
11,CCCn1c(SCC(=O)NCC(=O)Nc2ccc(F)c(F)c2F)nc2ccccc2c1=O,inactive: 0.4%
13,CCOC(=O)c1sc2cccc(F)c2c1N,inconclusive: -0.2%
19,CC(C)(C)C1CCC(=NNc2ncc(C(F)(F)F)cc2Cl)CC1 (stereo unspecified),inconclusive: 0.6%
20,O=C(NNC(=O)c1ccccc1O)c1ccc(S(=O)(=O)Nc2ccccc2F)cc1,inconclusive: -0.7%

# (more compounds)

row,Compound,inhibition
1,Cc1cccc(Cl)c1NNC(=O)Nc1c([N+](=O)[O-])c(C)nn1C,inconclusive: 4.4%
2,Cc1cc(C)nc(Sc2ncnc3c2oc2ccccc23)n1,inactive: 2.4%
3,C=CCn1c(COC)nnc1SCC(=O)c1ccc(F)cc1,inconclusive: -2.2%
4,CC1CCN(C(=O)CCCOc2cc(=O)n(C)c3ccccc23)CC1,inconclusive: 0.5%
5,COc1ccc(CC(=O)Nc2ccc(S(=O)(=O)Nc3nc(C)cc(C)n3)cc2)cc1,inactive: 2.2%
6,Cc1c(CN2CCCCC2C)c(=O)n(-c2ccccc2)n1C (stereo unspecified),inconclusive: 2.7%
7,CCc1nn(CC(=O)Nc2cc(C)ccc2C)c(=N)s1,inactive: -0.4%
8,Cc1ccc(C(=O)NCc2ccco2)cc1Br,inconclusive: 9.6%
9,O=C(c1ccccc1[N+](=O)[O-])N1CCCC(C(=O)N2CCCCCC2)C1 (stereo unspecified),inconclusive: -0.9%
10,CC1C(=O)c2ccccc2CC1C(=O)O (stereo unspecified),inactive: 0.6%
11,O=C(CCCn1cncn1)N1CCCC(N2CCN(c3ccc(F)cc3)CC2)C1 (stereo unspecified),inactive: -0.3%
12,CCOc1ccccc1N1CCN(Cc2cnc(-c3ccccc3)[nH]2)CC1,inconclusive: -2%
13,C=CC(=O)Nc1cccc(Oc2ccnc(Nc3ccc(N4CCN(C)CC4)cc3)n2)c1,inactive: -1.3%
14,CCCCNC(=O)c1cccc(S(=O)(=O)N2CC3(C)CC2CC(C)(C)C3)c1 (stereo unspecified),inconclusive: -2%
15,CC(C)(C)OC(=O)N1CCC(CNC(=O)c2ccc(F)cc2)CC1,inconclusive: -2.9%
16,COC(=O)c1sccc1-c1ccc(C(=O)Nc2ccccc2)o1,inconclusive: 2.7%
17,COc1ccc(C(=O)NCC(c2ccccc2)N2CCCC2)cc1S(=O)(=O)N1CCOCC1 (stereo unspecified),inactive: -1.1%
18,O=C(Cc1ccccc1)c1ccc(Cl)cc1,inconclusive: -2.1%
19,Cc1nc(C)c(Oc2cccc(C(F)(F)F)c2)c(=O)[nH]1,inconclusive: -4.2%
20,Cc1cc2cc(CNC(=O)COc3ccccc3)ccc2n1C,active: 69.2%
21,O=C(CN1CCN(Cc2ccccc2)CC1)N/N=C/c1cccs1,inconclusive: -45%

row,Compound,inhibition
1,Cn1c(-c2ccc(C=O)s2)nc2c3ccccc3c3ccccc3c21,active: 79.3%
2,Cc1ccc(-n2c(-c3cc(-c4ccco4)[nH]n3)n[nH]c2=S)c(Br)c1,inconclusive: 4.6%
3,CCCCCN(C(=O)CCC(=O)OCc1cc(C)ccc1C)c1c(N)n(CCCC)c(=O)[nH]c1=O,inconclusive: 1.1%
4,CC(C)(C)c1ccccc1NC(=O)c1cccnc1,inconclusive: 0.2%
5,CCN(CC)c1ccc(/C=C2\CCC(/C=C(\C#N)C(=O)Nc3ccccc3F)=C2N2CCOCC2)cc1,active: 39.8%
6,Cc1cc(C)c(-c2cc(C(F)(F)F)no2)c(=O)[nH]1,inconclusive: -4.2%
7,Cc1ccc(NC(=O)CCNS(=O)(=O)c2ccc3[nH]c(=O)oc3c2)cc1N(C)C,inactive: -0.1%
8,Cc1ccc(C)c(OCCCN2CCCC2)c1,inactive: -0.8%
9,O=C(COC(=O)c1ccccn1)NCc1cccs1,inconclusive: 1.1%
10,O=C(Nc1cc(C(F)(F)F)ccc1N1CCOCC1)c1cccnc1,inconclusive: 2.1%
11,COc1cc(C(=O)Nc2nc(C)cc(C)n2)cc(OC)c1OC,inconclusive: -22%
12,O=C(COC(=O)/C=C/c1ccccc1)NNC(=O)c1ccccc1F,inactive: 2%
13,O=C(NCCCCNC(=O)c1ccc(Cl)s1)c1ccc(Cl)s1,inactive: 0.3%
14,C=CCn1c(SCC(=O)NCc2ccccc2)nnc1C1CCCCC1,inactive: 0.7%
15,Cc1cc(-c2nnc(SCC(=O)N3C(C)CCCC3C)o2)no1 (stereo unspecified),inconclusive: -0.4%
16,O=C(Nc1nc2ccsc2c(=O)s1)C1CCC1,inactive: 0%
17,O=C(COC(=O)Cc1ccccc1[N+](=O)[O-])Nc1nnc(-c2ccccc2)o1,inconclusive: 9.8%
18,CCN(CC)C(=O)Cn1cc(C(=O)C(=O)Nc2ccc3c(c2)OCCO3)c2ccccc21,inactive: -0.6%
19,C=C(C)C1CC=C(C)/C(=N/NC(=O)c2ccc(NC(=O)CC)cc2)C1 (stereo unspecified),inconclusive: -4.7%
